This continues a long series; more values of the same kind are listed elsewhere.
Test system: 867 cancer cell lines
Experiment: PRISM assay (barcoded cell line screening, 5 days);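 note: top test concentration 10 mM in eight-point dilution series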
Type: cell-based
Parameters: scale not given here
Protocol: The principle of the PRISM assay has been described elsewhere and was conducted as previously outlined by the PRISM team at the Broad Institute.^[ [14], [31] ^] In PRISM (MTS027) experiments, KG‐FP‐003 was tested across 867 different cancer cell lines. Cells were treated with eight concentration gradients, ranging from 4.6 nM to […], in triplicate dilutions over a period of five days. Each plate was treated with 20 µM bortezomib as a positive control and DMSO as a negative control. Three replicate experiments were performed for each compound. The resulting data were analyzed using GraphPad PRISM 9.5.

What does the source list for `CNC(=O)c1cc2c(c(F)c1-c1c(Cl)c(F)cc3c1C[C@@](CN[C@H]1CC[C@H](C(=O)N4CCC(CC5CCN(C(=O)COc6ccc(N7CCC(=O)NC7=O)c(C)c6)CC5)CC4)CC1)(c1ccccc1)O3)[C@@H](O)[C@@H](C)C2` [KG-FP-003]?
KG-FP-003-AUC (SKMEL5_SKIN, PR500): 1.00; KG-FP-003-AUC (SKMEL24_SKIN, PR500): 0.91; KG-FP-003-AUC (SKMEL28_SKIN, PR300): 0.98; KG-FP-003-AUC (SKMEL30_SKIN, PR500): 0.70; KG-FP-003-AUC (SKMES1_LUNG, PR500): 0.84; KG-FP-003-AUC (SKNAS_AUTONOMIC_GANGLIA, PR300): 1.00; KG-FP-003-AUC (SKNAS_AUTONOMIC_GANGLIA, PR500): 1.00; KG-FP-003-AUC (SKNBE2_AUTONOMIC_GANGLIA, PR300): 0.98; KG-FP-003-AUC (SKNBE2_AUTONOMIC_GANGLIA, PR500): 0.98; KG-FP-003-AUC (SKNDZ_AUTONOMIC_GANGLIA, PR300): 1.00; KG-FP-003-AUC (SKNFI_AUTONOMIC_GANGLIA, PR300): 1.00; KG-FP-003-AUC (SKNO1_HAEMATOPOIETIC_AND_LYMPHOID_TISSUE, PR300): 0.91; KG-FP-003-AUC (SKN_ENDOMETRIUM, PR300): 0.76; KG-FP-003-AUC (SKOV3_OVARY, PR500): 0.99; KG-FP-003-AUC (SKPNDW_BONE, PR300): 0.91; KG-FP-003-AUC (SKUT1_SOFT_TISSUE, PR500): 0.90; KG-FP-003-AUC (SMSCTR_SOFT_TISSUE, PR300): 0.92; KG-FP-003-AUC (SNB75_CENTRAL_NERVOUS_SYSTEM, PR500): 0.90; KG-FP-003-AUC (SNGM_ENDOMETRIUM, PR500): 0.24; KG-FP-003-AUC (SNU1_STOMACH, PR300): 0.78; KG-FP-003-AUC (SNU46_UPPER_AERODIGESTIVE_TRACT, PR500): 0.59; KG-FP-003-AUC (SNU61_LARGE_INTESTINE, PR500): 0.81; KG-FP-003-AUC (SNU81_LARGE_INTESTINE, PR500): 0.83; KG-FP-003-AUC (SNU119_OVARY, PR300): 0.72; KG-FP-003-AUC (SNU182_LIVER, PR300): 0.43; KG-FP-003-AUC (SNU201_CENTRAL_NERVOUS_SYSTEM, PR300): 0.88; KG-FP-003-AUC (SNU213_PANCREAS, PR500): 0.88; KG-FP-003-AUC (SNU216_STOMACH, PR300): 0.75; KG-FP-003-AUC (SNU245_BILIARY_TRACT, PR500): 1.00; KG-FP-003-AUC (SNU308_BILIARY_TRACT, PR500): 1.00; KG-FP-003-AUC (SNU398_LIVER, PR500): 0.98; KG-FP-003-AUC (SNU407_LARGE_INTESTINE, PR500): 0.99; KG-FP-003-AUC (SNU423_LIVER, PR500): 0.41; KG-FP-003-AUC (SNU449_LIVER, PR500): 0.84; KG-FP-003-AUC (SNU466_CENTRAL_NERVOUS_SYSTEM, PR500): 0.36; KG-FP-003-AUC (SNU478_BILIARY_TRACT, PR300): 0.94; KG-FP-003-AUC (SNU489_CENTRAL_NERVOUS_SYSTEM, PR300): 0.68; KG-FP-003-AUC (SNU601_STOMACH, PR500): 0.94; KG-FP-003-AUC (SNU638_STOMACH, PR300): 0.90; KG-FP-003-AUC (SNU668_STOMACH, PR500): 0.44; KG-FP-003-AUC (SNU685_ENDOMETRIUM, PR500): 0.96; KG-FP-003-AUC (SNU719_STOMACH, PR500): 0.96; KG-FP-003-AUC (SNU761_LIVER, PR500): 0.88; KG-FP-003-AUC (SNU840_OVARY, PR500): 0.78; KG-FP-003-AUC (SNU869_BILIARY_TRACT, PR500): 0.99; KG-FP-003-AUC (SNU878_LIVER, PR300): 0.86; KG-FP-003-AUC (SNU886_LIVER, PR500): 0.77; KG-FP-003-AUC (SNU899_UPPER_AERODIGESTIVE_TRACT, PR300): 0.54; KG-FP-003-AUC (SNU1041_UPPER_AERODIGESTIVE_TRACT, PR500): 0.77; KG-FP-003-AUC (SNU1066_UPPER_AERODIGESTIVE_TRACT, PR500): 0.99; KG-FP-003-AUC (SNU1076_UPPER_AERODIGESTIVE_TRACT, PR500): 0.72; KG-FP-003-AUC (SNU1077_ENDOMETRIUM, PR500): 0.62; KG-FP-003-AUC (SNU1079_BILIARY_TRACT, PR500): 0.77; KG-FP-003-AUC (SNU1105_CENTRAL_NERVOUS_SYSTEM, PR500): 0.72; KG-FP-003-AUC (SNU1196_BILIARY_TRACT, PR500): 1.00; KG-FP-003-AUC (SNU1214_UPPER_AERODIGESTIVE_TRACT, PR500): 0.84; KG-FP-003-AUC (SNU1544_LARGE_INTESTINE, PR300): 0.91; KG-FP-003-AUC (SNU2372_BREAST, PR300): 1.00; KG-FP-003-AUC (SNUC2A_LARGE_INTESTINE, PR500): 0.92; KG-FP-003-AUC (SNUC4_LARGE_INTESTINE, PR500): 1.00; KG-FP-003-AUC (SQ1_LUNG, PR500): 0.60; KG-FP-003-AUC (SSP25_BILIARY_TRACT, PR300): 0.93; KG-FP-003-AUC (STM9101_SOFT_TISSUE, PR300): 0.99; KG-FP-003-AUC (SUDHL1_HAEMATOPOIETIC_AND_LYMPHOID_TISSUE, PR300): 0.70; KG-FP-003-AUC (SUDHL4_HAEMATOPOIETIC_AND_LYMPHOID_TISSUE, PR300): 0.91; KG-FP-003-AUC (SUDHL8_HAEMATOPOIETIC_AND_LYMPHOID_TISSUE, PR300): 0.97; KG-FP-003-AUC (SUIT2_PANCREAS, PR500): 1.00; KG-FP-003-AUC (SUM149PT_BREAST, PR300): 0.66; KG-FP-003-AUC (SUM159PT_BREAST, PR300): 0.96; KG-FP-003-AUC (SUPB15_HAEMATOPOIETIC_AND_LYMPHOID_TISSUE, PR300): 0.98; KG-FP-003-AUC (SUPT11_HAEMATOPOIETIC_AND_LYMPHOID_TISSUE, PR300): 0.91; KG-FP-003-AUC (SUSA_TESTIS, PR300): 0.97; KG-FP-003-AUC (SW13_ADRENAL_CORTEX, ACH-001401, PR300): 0.99; KG-FP-003-AUC (SW156_KIDNEY, ACH-001398, PR300): 0.91; KG-FP-003-AUC (SW480_LARGE_INTESTINE, ACH-000842, PR500): 0.99; KG-FP-003-AUC (SW579_THYROID, ACH-000163, PR500): 0.51; KG-FP-003-AUC (SW620_LARGE_INTESTINE, ACH-000651, PR500): 0.99; KG-FP-003-AUC (SW626_LARGE_INTESTINE, ACH-001399, PR300): 0.53; KG-FP-003-AUC (SW756_CERVIX, ACH-001402, PR300): 0.93; KG-FP-003-AUC (SW780_URINARY_TRACT, ACH-000384, PR500): 0.95; KG-FP-003-AUC (SW837_LARGE_INTESTINE, ACH-000421, PR500): 1.00; KG-FP-003-AUC (SW900_LUNG, ACH-000669, PR500): 0.82; KG-FP-003-AUC (SW948_LARGE_INTESTINE, ACH-000680, PR500): 1.00; KG-FP-003-AUC (SW954_CERVIX, ACH-001400, PR300): 0.56; KG-FP-003-AUC (SW1088_CENTRAL_NERVOUS_SYSTEM, PR500): 0.74; KG-FP-003-AUC (SW1116_LARGE_INTESTINE, ACH-000489, PR300): 0.97; KG-FP-003-AUC (SW1271_LUNG, ACH-000890, PR500): 0.78; KG-FP-003-AUC (SW1353_BONE, ACH-000418, PR500): 0.52; KG-FP-003-AUC (SW1463_LARGE_INTESTINE, ACH-000470, PR300): 0.89; KG-FP-003-AUC (SW1573_LUNG, ACH-000677, PR500): 0.97; KG-FP-003-AUC (SW1710_URINARY_TRACT, ACH-000566, PR500): 0.56; KG-FP-003-AUC (SW1783_CENTRAL_NERVOUS_SYSTEM, ACH-000883, PR300): 0.98; KG-FP-003-AUC (SW1990_PANCREAS, ACH-000155, PR500): 0.78; KG-FP-003-AUC (T3M5_THYROID, ACH-002042, PR300): 0.70; KG-FP-003-AUC (T3M10_LUNG, ACH-000813, PR500): 0.98

— PMC12752627, “Discovery of a Potent and Selective TEAD Degrader with Durable Degradation Activity” (Advanced Science, 2025)
